Results are given in words; binding and its absence hold for the method and conditions named. Binding seen in cells or lysates may run through a third protein. Sequences can lack the tags named with a protein.
Biological target: T1, ATG101, BiFC fusion (Arabidopsis) (UniProt F4K265)
T1 sequence: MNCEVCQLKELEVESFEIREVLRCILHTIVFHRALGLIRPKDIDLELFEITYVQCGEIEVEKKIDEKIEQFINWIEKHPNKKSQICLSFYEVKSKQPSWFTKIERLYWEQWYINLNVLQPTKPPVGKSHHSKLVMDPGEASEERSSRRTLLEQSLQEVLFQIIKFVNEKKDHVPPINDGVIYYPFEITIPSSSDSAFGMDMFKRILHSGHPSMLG
Test: split reporter

binding: no binding
Substance: phosphoglycerate kinase 2 (PGK2), BiFC fusion (Arabidopsis) (enzyme)
